Data reported in PubChem BioAssay AID2685 (National Center for Advancing Translational Sciences (NCATS), 2010).
This is one part of the list. Further columns of the screen follow, without active or inactive calls. Most of these compounds were active or inconclusive in the main read-out, so they are no random draw. Words in brackets tell the shape of the fitted curve; partial curves, single points and poor fits give uncertain potencies.

Experiment: qHTS Assay for Lipid Storage Modulators in Drosophila S3 Cells;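 for cell number change: cells counted by Cell Tracker Red CMTPX staining in the red channel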
Conditions: BODIPY lipid droplet fluorescence, 18-24 h; for cell number change: measured here: cell count max response, cells fed with added oleic acid
In short: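 Drosophila S3 cells loaded with oleic acid (400 uM, as added) and compounds at several concentrations; lipid droplets imaged by 488-nm laser-scanning cytometry, 500–530 nm intensity and object ratio to cell channel. Percent activity normalized to 20 uM Triacsin C.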

[1] = measured here: lipid fluorescence (Fed channel) AC50, cells fed with added oleic acid
[2] = measured here: cell number channel AC50, cells fed with added oleic acid

Row | Structure (SMILES) | cell number change | AC50 [1] | AC50 [2]
1 | CCCCCOc1ccc(C(=O)CCN2CCOCC2)cc1 | -14.7% | 6.51 µM [falling, full curve] | –
2 | CCc1sc(C(=O)Nc2cccc(-n3cnnn3)c2)cc1C | -3.17% | 0.461 µM [rising, full curve, poor fit] | –
3 | CN(Cc1ccco1)C(=O)c1cc2c(s1)-c1ccc(Cl)cc1S(=O)(=O)C2 | -10% | 6.51 µM [rising, single point] | –
4 | O=c1c2ccccc2oc2ccc(NCCCn3ccnc3)cc12 | -3.29% | 29.1 µM [rising, single point] | –
5 | CCOc1ccccc1Nc1nc(-c2sc(NC(=O)c3ccccc3)nc2C)cs1 | -1.26% | 0.231 µM [rising, single point] | 6.51 µM [rising, single point]
6 | O=C(Cc1cccs1)NCc1cccc(Cl)c1 | -4.96% | 0.13 µM [falling, full curve, poor fit] | –
7 | COc1ccc(NC(=O)CNC(=O)Cn2ccc3ccccc3c2=O)c(OC)c1 | 14.9% | 6.51 µM [rising, single point] | –
8 | COCC(=O)NCCc1nc2ccccc2[nH]1 | -20.8% | 14.6 µM [falling, partial curve] | 3.26 µM [falling, single point]
9 | COc1ccccc1Cn1nnc2c(=O)[nH]c(C3CCN(C(=O)c4ccc(C)cc4)CC3)nc21 | -6.93% | 20.6 µM [falling, partial curve] | –
10 | CC(C)c1ccc(NC2CCCN(C(=O)c3n[nH]c4c3CCC4)C2)cc1 (stereo unspecified) | – | 1.84 µM [falling, partial curve] | –
11 | O=[N+]([O-])c1cccc(-c2nc3ccccc3s/c2=N/O)c1 | -52.1% | 23.1 µM [falling, partial curve] | 18.4 µM [falling, partial curve]
12 | CCOC(=O)Cn1c(=N)n(Cc2ccccc2F)c2ccccc21 | – | 23.1 µM [falling, partial curve] | –
13 | COc1ccc(NC(=O)Nc2ccc(Cc3ccncc3)cc2)c(OC)c1 | 35.8% | 5.17 µM [rising, full curve] | 6.51 µM [rising, single point]
14 | CCC(C)NC(=O)c1ccc(N2CC3CC(C2)c2cccc(=O)n2C3)c(NC(=O)c2ccc(Br)o2)c1 (stereo unspecified) | 6.05% | 1.46 µM [falling, partial curve] | –
15 | CCOC(=O)CSc1nc(CC)nc2ccccc12 | -32.3% | 0.092 µM [falling, full curve, poor fit] | 16.4 µM [falling, single point]
16 | CC(C)(C)C1CCc2onc(C(=O)Nc3cccc(O)c3)c2C1 (stereo unspecified) | -47% | – | 23.1 µM [falling, partial curve, poor fit]
17 | NC1=NC2CS(=O)(=O)CC2S1 (stereo unspecified) | 9.02% | 1.03 µM [rising, partial curve] | –
18 | O=[N+]([O-])c1ncccc1Oc1nc(-c2cccnc2)nc2ccccc12 | 70.9% | – | 9.2 µM [rising, partial curve]
19 | c1ccc(Cn2ccnc2SCc2nnc(-c3ccccc3)o2)cc1 | 6.55% | – | 0.651 µM [rising, full curve, poor fit]
20 | Cn1c(Cc2ccccc2)n[nH]c1=S | -66.7% | – | 0.082 µM [falling, full curve, poor fit]

Single records, as listed above:
CC(C)c1ccc(NC2CCCN(C(=O)c3n[nH]c4c3CCC4)C2)cc1 (stereo unspecified) in the list: AC50 [1]: 1.84 µM [falling, partial curve]
O=[N+]([O-])c1cccc(-c2nc3ccccc3s/c2=N/O)c1 in the list: cell number change: -52.1%; AC50 [1]: 23.1 µM [falling, partial curve]; AC50 [2]: 18.4 µM [falling, partial curve]
COc1ccc(NC(=O)Nc2ccc(Cc3ccncc3)cc2)c(OC)c1 in the list: cell number change: 35.8%; AC50 [1]: 5.17 µM [rising, full curve]; AC50 [2]: 6.51 µM [rising, single point]
COc1ccc(NC(=O)CNC(=O)Cn2ccc3ccccc3c2=O)c(OC)c1 in the list: cell number change: 14.9%; AC50 [1]: 6.51 µM [rising, single point]

Continued.

Row | Structure (SMILES) | cell number change | AC50 [1] | AC50 [2]
21 | O=S(=O)(NC1CCCC1)c1cccc(S(=O)(=O)N2CCC(n3nnc4ccccc43)CC2)c1 | -16.9% | 29.1 µM [falling, single point] | –
22 | CC1CCN(S(=O)(=O)c2ccc(C(=O)NCc3cccnc3)cc2)CC1 | – | – | 0.092 µM [rising, single point]
23 | CN(Cc1ccccc1)S(=O)(=O)c1ccc2[nH]cc(C(=O)NCC3CCCO3)c(=O)c2c1 (stereo unspecified) | -22.7% | 10.3 µM [falling, single point] | –
24 | Cc1cccc(NC(=O)c2cccc(NC(=O)c3ccccc3)c2)n1 | 3.72% | 29.1 µM [falling, single point] | –
25 | Cc1ccc2nsnc2c1S(=O)(=O)N(Cc1cc2cccc(C)c2[nH]c1=O)CC1CCCO1 (stereo unspecified) | 120% | – | 23.1 µM [rising, single point]
26 | CC(C)NC(=O)CSc1nncn1-c1ccccc1 | – | 0.082 µM [rising, full curve, poor fit] | –
27 | CCOc1ccc(-c2cc(C(=O)NCCCn3ccnc3)c3ccccc3n2)cc1 | – | 0.13 µM [rising, full curve, poor fit] | –
28 | O=C(CSc1nnc(CNC(=O)c2cccc(C(F)(F)F)c2)o1)NC1CCCCC1 | -28.7% | 6.51 µM [rising, single point] | –
29 | COc1ccc(-c2c(C#N)c(N)nc3sc(C(=O)c4ccc(C)cc4)c(N)c23)cc1 | 2.67% | 29.1 µM [falling, partial curve, poor fit] | –
30 | COc1ccc(C)c2sc(N(CCCN(C)C)C(=O)CS(=O)(=O)c3ccc(F)cc3)nc12 | 6.81% | 2.06 µM [falling, partial curve] | 1.46 µM [falling, partial curve]
31 | C=CCOCCn1[nH]c2ccccc2c1=O | 33.6% | 5.8 µM [rising, full curve] | 7.31 µM [rising, partial curve, poor fit]
32 | O=C(N/N=C\c1cn[nH]c1-c1ccccc1)c1ccc([N+](=O)[O-])cc1 | 11.6% | 29.1 µM [falling, single point] | –
33 | O=C1NN(c2ccccc2)C(=O)/C1=C\c1ccccc1 | -21.2% | – | –
34 | COc1cccc(CNC(=O)CCNC(=O)C2CCN(S(=O)(=O)c3ccccc3)CC2)c1 | 27.8% | 0.184 µM [rising, full curve, poor fit] | –
35 | CCOc1ccc(-n2c(Cc3cc(=O)[nH]c(=O)[nH]3)nnc2SCC(=O)Nc2nnc(C)s2)cc1 | -46% | 0.146 µM [falling, single point] | 0.259 µM [falling, full curve, poor fit]
36 | Cc1ccc(-c2csc3nc[nH]c(=O)c23)cc1 | 20.1% | 0.651 µM [falling, partial curve, poor fit] | –
37 | CC(CCc1ccccc1)NC(=O)COC(=O)c1cccn1C (stereo unspecified) | -18.7% | 4.11 µM [falling, full curve] | –
38 | CCOC(=O)N1CCN(Cc2oc(CO)cc(=O)c2O)CC1 | 0.429% | 0.82 µM [falling, full curve] | –
39 | Cc1ccc(N2CC(C(=O)NCCS(=O)(=O)N3CCN(c4ccc(F)cc4)CC3)CC2=O)cc1 (stereo unspecified) | – | 1.46 µM [falling, partial curve] | –
40 | Nc1ccn([C@H]2CS[C@@H](CO)O2)c(=O)n1 | -38.2% | 1.16 µM [rising, single point] | 25.9 µM [falling, single point]

Row | Structure (SMILES) | cell number change | AC50 [1] | AC50 [2]
41 | Cc1ccc(Oc2ccc(S(=O)(=O)N3CCOCC3)cc2C(N)=O)c(-n2nc3ccccc3n2)c1 | -28.4% | 29.1 µM [falling, single point] | –
42 | N#CCCNC(=O)CCN1CCOCC1 | 8.81% | – | –
43 | C#CCOC(=O)C[N+](C)(C)C/C=C/c1ccccc1 | 2.52% | 20.6 µM [rising, single point] | –
44 | Oc1c(CN2CCOCC2)cc(-c2ccccc2)cc1CN1CCOCC1 | 18.1% | 20.6 µM [rising, partial curve, poor fit] | –
45 | COc1ccc(NCN2C(=O)CCC2=O)cc1 | -18.8% | 29.1 µM [falling, partial curve] | –
46 | COc1ccc(C2Nc3ccccc3C(=O)N2NS(=O)(=O)c2ccc(C)cc2)cc1OC (stereo unspecified) | 9.52% | – | –
47 | O=C(COC(=O)c1cc[n+]([O-])cc1)Nc1cccc(Br)c1 | – | 29.1 µM [rising, single point] | –
48 | CC(=O)Nc1ccc(NS(=O)(=O)c2ccc(C)cc2)c([N+](=O)[O-])c1 | 12.6% | 0.00517 µM [falling, full curve, poor fit] | –
49 | CCN(CC)C(=O)Oc1ccccc1NC(C)=O | -30.4% | – | –
50 | COc1cc(NC(=O)[C@H]2CCCN2S(=O)(=O)c2cccc3cccnc23)cc(OC)c1OC | 11% | 29.1 µM [rising, single point] | –
51 | Cc1ccc(-c2noc(CCC(=O)NC3CCN(Cc4ccccc4)CC3)n2)cc1 | -47.6% | 13 µM [falling, partial curve] | 8.2 µM [falling, partial curve]
52 | CC(=O)c1ccc(S(=O)(=O)N2CCN(C(=O)CCC3CCCC3)CC2)cc1 | -75% | – | 29.1 µM [falling, single point]
53 | Cc1ccc2nc(N3C(=O)C(O)=C(C(=O)c4ccco4)C3c3ccc(O)cc3)sc2c1 (stereo unspecified) | 14.5% | – | 0.00411 µM [rising, full curve, poor fit]
54 | CC1CCCN(c2c([N+](=O)[O-])c(=O)oc3ccccc23)C1 (stereo unspecified) | -64.9% | – | 29.1 µM [falling, single point]
55 | S=c1[nH]nc(COc2ccc(Cl)cc2)n1Cc1ccco1 | 5.32% | – | 0.13 µM [falling, full curve, poor fit]
56 | COc1ccc(S(=O)(=O)N2CCOCC2)cc1NC(=O)CN1CCN(C)CC1 | -32.3% | 20.6 µM [falling, single point] | 1.3 µM [falling, full curve, poor fit]
57 | Cc1cc(C)nc(Sc2ccc([N+](=O)[O-])cc2[N+](=O)[O-])n1 | – | 13 µM [falling, partial curve] | –
58 | CCCC1CC(C)(c2csc(Nc3ccc(OCC)cc3)n2)OC1=O (stereo unspecified) | -45.5% | 25.9 µM [falling, single point] | 23.1 µM [falling, single point]
